According to publication PMC7279889:
Construct, isoform or probe ends are uncertain for at least one entry. Weaker means in comparison with the reference protein, sequence or condition of that experiment.

Biological target: FMRP RGG domain (Mus musculus) (UniProt P35922)
Test: fluorescence polarization
Conditions: 150 mM LiCl, less RNA bound, affinity stated as unchanged (author response); FP: 10 mM Tris-HCl (pH not stated), 150 mM KCl or LiCl, 5% glycerol, 10 nM RNA, protein 2 nM-1 uM, 5 min at 25 C, read at 26-27 C; recombinant protein; residues 478-614; label: 3' 6-FAM

Sequence: GGGAGGGAGGGAGGGUA [rG4 in LiCl (quadruplex disrupted)]
- binding result: binds more weakly
